Test results: the supplement of paper PMC6411743
± gives the standard deviation of the averaged measurements. The list shows a part of the results, in another mix than the full data. Most entries show no effect beyond the scatter of the controls.

By UniProt entry, the sequences of proteins in these tests, tags left out. Where a name states a change or a piece, a line headed by the entry shows the natural chain unless it says otherwise.
UniProt O43676, whole entry: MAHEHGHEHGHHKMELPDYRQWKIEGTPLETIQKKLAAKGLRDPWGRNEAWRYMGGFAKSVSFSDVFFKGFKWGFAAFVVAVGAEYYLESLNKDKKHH
UniProt Q8WV99: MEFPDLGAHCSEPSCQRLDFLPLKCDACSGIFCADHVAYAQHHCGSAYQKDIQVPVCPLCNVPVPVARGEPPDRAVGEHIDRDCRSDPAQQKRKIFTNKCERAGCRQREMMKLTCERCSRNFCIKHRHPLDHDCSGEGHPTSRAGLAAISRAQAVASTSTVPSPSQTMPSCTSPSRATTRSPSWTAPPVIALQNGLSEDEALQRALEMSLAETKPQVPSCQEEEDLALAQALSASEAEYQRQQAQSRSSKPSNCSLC
UniProt A7KAX9: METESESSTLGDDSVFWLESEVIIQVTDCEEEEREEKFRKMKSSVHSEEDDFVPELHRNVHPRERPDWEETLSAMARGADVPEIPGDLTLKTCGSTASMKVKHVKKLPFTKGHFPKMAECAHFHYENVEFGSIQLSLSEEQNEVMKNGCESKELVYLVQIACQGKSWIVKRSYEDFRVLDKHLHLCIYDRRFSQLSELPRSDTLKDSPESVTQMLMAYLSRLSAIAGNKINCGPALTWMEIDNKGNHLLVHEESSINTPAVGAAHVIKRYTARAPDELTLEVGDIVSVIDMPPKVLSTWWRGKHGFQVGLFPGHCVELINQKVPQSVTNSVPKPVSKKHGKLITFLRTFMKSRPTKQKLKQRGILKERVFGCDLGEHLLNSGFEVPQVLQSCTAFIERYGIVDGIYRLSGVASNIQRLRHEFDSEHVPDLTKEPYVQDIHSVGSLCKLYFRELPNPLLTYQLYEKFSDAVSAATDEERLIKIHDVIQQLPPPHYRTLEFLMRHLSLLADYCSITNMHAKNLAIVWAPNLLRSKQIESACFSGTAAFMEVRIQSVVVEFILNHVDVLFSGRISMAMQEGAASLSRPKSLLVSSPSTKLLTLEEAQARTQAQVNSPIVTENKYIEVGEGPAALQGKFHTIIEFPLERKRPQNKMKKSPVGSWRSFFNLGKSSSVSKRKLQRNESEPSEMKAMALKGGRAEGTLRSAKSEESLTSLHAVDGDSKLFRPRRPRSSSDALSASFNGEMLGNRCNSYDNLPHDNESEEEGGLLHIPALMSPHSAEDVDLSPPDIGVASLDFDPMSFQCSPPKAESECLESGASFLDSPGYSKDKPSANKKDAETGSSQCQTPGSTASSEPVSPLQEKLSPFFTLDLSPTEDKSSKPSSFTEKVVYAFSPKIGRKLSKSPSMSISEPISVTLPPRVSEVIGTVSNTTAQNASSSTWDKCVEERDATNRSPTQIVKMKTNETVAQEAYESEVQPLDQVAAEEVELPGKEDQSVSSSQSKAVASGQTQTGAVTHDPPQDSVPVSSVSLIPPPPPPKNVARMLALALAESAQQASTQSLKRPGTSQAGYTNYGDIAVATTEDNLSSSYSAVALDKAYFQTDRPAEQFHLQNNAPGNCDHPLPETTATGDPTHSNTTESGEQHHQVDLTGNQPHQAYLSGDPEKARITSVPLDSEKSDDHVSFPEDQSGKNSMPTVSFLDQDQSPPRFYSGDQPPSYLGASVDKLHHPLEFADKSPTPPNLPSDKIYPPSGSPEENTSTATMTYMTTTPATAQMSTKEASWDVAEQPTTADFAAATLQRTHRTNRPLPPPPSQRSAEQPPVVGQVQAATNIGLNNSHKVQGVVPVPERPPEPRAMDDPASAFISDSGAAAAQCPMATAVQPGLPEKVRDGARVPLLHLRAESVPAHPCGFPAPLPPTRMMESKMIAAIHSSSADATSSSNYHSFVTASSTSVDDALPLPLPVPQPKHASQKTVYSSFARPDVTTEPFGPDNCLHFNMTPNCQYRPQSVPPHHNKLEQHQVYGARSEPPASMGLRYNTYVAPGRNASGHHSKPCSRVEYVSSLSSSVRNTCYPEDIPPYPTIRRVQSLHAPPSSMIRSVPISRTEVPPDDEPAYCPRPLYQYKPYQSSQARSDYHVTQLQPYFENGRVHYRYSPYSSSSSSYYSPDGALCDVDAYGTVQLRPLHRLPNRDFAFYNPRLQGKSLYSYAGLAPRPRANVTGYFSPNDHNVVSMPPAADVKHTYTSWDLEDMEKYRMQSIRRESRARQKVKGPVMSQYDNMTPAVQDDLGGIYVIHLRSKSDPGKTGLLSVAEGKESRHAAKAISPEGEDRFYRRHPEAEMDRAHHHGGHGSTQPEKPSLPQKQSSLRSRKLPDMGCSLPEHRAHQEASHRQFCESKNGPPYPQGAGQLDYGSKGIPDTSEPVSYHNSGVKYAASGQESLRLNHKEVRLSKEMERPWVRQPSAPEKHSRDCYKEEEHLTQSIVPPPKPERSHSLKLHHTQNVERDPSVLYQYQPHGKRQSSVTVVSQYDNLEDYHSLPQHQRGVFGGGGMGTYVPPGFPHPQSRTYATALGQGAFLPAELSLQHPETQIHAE
UniProt Q92664: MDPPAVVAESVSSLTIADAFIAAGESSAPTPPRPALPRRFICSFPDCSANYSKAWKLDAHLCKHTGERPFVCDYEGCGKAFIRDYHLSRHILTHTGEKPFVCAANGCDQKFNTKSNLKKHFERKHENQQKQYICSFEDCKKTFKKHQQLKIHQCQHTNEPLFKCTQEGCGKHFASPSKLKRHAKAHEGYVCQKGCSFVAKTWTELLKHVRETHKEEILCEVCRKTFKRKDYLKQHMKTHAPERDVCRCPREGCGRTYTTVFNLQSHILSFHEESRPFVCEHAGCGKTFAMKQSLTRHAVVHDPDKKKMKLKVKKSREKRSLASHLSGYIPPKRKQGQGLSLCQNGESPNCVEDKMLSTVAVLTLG
UniProt O15504: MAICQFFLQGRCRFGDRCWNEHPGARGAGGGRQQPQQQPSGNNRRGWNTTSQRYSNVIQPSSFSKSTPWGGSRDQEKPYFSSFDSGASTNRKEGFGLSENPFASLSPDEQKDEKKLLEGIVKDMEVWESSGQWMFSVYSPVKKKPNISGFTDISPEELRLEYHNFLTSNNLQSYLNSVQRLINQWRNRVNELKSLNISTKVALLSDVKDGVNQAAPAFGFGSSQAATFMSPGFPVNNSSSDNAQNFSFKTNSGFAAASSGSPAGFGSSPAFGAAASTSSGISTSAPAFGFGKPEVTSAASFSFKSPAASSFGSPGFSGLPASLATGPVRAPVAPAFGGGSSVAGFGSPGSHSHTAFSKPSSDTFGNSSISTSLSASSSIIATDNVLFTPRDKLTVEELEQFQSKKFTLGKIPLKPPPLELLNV
UniProt Q12857, whole entry: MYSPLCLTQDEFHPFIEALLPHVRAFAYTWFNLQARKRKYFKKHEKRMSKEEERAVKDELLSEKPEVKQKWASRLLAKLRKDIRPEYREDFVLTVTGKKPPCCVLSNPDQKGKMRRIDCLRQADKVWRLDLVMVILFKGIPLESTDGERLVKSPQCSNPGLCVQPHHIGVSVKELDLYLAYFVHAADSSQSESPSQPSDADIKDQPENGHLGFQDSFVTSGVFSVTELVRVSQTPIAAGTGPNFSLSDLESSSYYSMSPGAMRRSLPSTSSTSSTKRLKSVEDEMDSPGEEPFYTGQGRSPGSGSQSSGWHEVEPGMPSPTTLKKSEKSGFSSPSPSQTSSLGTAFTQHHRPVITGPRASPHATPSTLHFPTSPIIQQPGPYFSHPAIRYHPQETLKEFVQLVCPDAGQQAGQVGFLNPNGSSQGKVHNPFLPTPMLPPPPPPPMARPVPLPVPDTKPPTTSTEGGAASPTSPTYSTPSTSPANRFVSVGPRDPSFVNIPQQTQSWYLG
UniProt Q8NI27: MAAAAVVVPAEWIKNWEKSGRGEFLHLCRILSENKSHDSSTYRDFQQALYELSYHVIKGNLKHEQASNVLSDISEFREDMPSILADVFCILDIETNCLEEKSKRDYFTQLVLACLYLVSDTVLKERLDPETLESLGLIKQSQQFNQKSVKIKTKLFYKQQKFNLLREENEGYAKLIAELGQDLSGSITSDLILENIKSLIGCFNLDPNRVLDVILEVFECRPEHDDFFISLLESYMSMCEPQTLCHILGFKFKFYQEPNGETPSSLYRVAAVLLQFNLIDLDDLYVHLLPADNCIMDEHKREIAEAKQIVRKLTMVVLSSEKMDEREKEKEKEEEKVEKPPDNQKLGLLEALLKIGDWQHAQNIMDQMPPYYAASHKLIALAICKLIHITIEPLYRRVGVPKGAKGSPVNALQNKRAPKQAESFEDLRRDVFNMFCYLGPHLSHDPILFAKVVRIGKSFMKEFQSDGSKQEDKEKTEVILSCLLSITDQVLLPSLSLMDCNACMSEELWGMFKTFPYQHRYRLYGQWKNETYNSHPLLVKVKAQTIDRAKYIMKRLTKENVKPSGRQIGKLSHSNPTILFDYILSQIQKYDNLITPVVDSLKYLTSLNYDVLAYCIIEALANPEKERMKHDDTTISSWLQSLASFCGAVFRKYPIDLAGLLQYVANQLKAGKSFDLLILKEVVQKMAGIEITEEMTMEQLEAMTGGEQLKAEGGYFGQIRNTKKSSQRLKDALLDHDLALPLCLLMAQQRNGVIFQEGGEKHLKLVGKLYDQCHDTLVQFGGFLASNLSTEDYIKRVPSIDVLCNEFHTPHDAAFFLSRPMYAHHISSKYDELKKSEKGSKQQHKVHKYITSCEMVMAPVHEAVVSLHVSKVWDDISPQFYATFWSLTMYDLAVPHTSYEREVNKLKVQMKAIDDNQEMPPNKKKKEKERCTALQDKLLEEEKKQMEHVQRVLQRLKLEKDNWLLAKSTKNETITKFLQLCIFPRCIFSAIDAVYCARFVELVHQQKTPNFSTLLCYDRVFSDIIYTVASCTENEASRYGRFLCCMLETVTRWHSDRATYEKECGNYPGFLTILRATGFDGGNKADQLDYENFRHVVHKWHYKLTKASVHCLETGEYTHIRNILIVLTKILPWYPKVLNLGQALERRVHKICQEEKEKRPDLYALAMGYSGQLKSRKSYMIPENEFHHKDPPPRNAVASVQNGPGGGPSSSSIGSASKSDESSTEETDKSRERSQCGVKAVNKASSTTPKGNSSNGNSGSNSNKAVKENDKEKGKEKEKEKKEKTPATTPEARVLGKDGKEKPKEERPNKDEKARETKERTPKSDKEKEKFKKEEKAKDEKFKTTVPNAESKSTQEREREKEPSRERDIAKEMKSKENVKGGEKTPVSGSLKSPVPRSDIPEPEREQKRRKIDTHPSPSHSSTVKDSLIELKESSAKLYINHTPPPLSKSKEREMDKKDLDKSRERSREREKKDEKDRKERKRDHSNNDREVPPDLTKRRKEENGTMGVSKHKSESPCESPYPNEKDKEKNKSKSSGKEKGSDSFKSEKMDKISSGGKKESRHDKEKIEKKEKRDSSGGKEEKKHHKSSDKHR
UniProt Q13162: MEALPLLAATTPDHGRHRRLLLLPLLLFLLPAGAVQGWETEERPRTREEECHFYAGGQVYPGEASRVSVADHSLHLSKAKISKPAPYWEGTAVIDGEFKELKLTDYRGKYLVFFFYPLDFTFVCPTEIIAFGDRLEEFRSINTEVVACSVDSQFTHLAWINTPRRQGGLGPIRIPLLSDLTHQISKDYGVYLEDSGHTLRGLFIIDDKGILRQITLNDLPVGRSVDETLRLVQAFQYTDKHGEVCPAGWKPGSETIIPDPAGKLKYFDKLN
UniProt Q9UI95, whole entry: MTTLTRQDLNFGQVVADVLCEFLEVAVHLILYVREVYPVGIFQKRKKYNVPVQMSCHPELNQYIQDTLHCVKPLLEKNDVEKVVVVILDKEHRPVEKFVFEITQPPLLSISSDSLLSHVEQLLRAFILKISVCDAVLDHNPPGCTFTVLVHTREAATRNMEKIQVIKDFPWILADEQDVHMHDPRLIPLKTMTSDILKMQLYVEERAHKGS
UniProt O75832: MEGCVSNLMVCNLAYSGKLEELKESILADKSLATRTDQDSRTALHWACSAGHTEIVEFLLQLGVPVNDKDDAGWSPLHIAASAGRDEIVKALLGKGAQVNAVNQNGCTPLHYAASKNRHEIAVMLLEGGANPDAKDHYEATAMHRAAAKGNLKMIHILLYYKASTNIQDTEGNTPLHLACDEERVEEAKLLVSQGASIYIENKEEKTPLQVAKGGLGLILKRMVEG
UniProt Q9UKS7: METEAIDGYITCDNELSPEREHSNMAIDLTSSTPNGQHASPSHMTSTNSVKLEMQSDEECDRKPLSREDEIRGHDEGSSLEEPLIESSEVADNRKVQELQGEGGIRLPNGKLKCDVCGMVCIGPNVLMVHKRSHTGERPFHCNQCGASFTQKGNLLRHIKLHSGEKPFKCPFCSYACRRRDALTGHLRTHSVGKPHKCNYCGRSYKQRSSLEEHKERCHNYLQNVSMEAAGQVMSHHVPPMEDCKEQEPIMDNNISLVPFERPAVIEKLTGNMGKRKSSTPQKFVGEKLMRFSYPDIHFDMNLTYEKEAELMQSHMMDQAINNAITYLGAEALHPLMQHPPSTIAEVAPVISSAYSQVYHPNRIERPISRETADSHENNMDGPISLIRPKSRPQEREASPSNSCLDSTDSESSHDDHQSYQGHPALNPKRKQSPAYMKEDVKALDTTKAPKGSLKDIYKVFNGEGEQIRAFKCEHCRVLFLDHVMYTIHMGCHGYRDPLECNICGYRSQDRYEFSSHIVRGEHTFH

Compound: Nc1ncnc2c1ncn2[C@@H]1O[C@H](COP(=O)(O)OP(=O)(O)OP(=O)(O)O)[C@@H](O)[C@H]1O [adenosine triphosphate]
Test: NP40-soluble protein abundance relative to vehicle (solubility fold change) (ratio); higher = more soluble protein in presence of ATP
Outline: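 Crude Jurkat lysate, prepared by Dounce homogenisation, was exposed to eight concentrations from 0.1 to 10 mM for 10 min at room temperature and then 3 min at 37 °C. Solubilisation used 0.8% NP40 with benzonase for 60 min at 4 °C, followed by ultracentrifugation and TMT labelling of the supernatant for LC-MS/MS. After vsn normalisation of intensities, each value is the fold change against the detergent-processed vehicle within each replicate, across three independent experiments.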

Target	NP40-soluble protein abundance (concentration: 0.1mM)	NP40-soluble protein abundance (concentration: 0.5mM)	NP40-soluble protein abundance (concentration: 1mM)	NP40-soluble protein abundance (concentration: 2mM)	NP40-soluble protein abundance (concentration: 4mM)	NP40-soluble protein abundance (concentration: 6mM)	NP40-soluble protein abundance (concentration: 8mM)	NP40-soluble protein abundance (concentration: 10mM)
C9JKQ2 and related entries (UniProt O43676)	0.906 ± 0.049	0.93 ± 0.074	0.921 ± 0.053	0.903 ± 0.08	0.867 ± 0.032	0.908 ± 0.048	0.862 ± 0.04	0.868 ± 0.042
D6REA1 and related entries (UniProt Q9H173)	0.947 ± 0.11	0.923 ± 0.027	0.922 ± 0.083	0.938 ± 0.046	0.92 ± 0.083	0.929 ± 0.11	0.917 ± 0.063	0.8663 ± 0.0052
UniProt A2VDJ0 and related entries	1.04 ± 0.082	0.996 ± 0.054						
A0A0G2JPP5|Q14160 and related entries (UniProt Q14160)	1.01 ± 0.018	0.986 ± 0.064	0.973 ± 0.016	0.96 ± 0.02	0.9694 ± 0.0075	0.98 ± 0.023	0.93 ± 0.021	0.941 ± 0.031
B4DEN4 and related entries (UniProt Q8WV99)	0.983 ± 0.048	0.946 ± 0.026	0.955 ± 0.084	0.953 ± 0.046	0.943 ± 0.059	0.958 ± 0.066	0.91 ± 0.037	0.902 ± 0.062
A8MT02 and related entries (UniProt P14678)	1.04 ± 0.14	1.06 ± 0.038	1.22 ± 0.14	1.34 ± 0.089	1.47 ± 0.05	1.7 ± 0.26	1.7 ± 0.22	1.63 ± 0.13
UniProt A7KAX9 and related entries	0.986 ± 0.057	0.924 ± 0.034	0.937 ± 0.054	0.91 ± 0.046	0.908 ± 0.0074	0.907 ± 0.024	0.904 ± 0.04	0.941 ± 0.018
B7ZBK4 and related entries (UniProt Q92664)	1.02 ± 0.04	1.04 ± 0.048	1.02 ± 0.021	1.03 ± 0.035	1 ± 0.042	0.9904 ± 0.0034	0.989 ± 0.026	0.976 ± 0.053
D0EV57 and related entries (UniProt Q29718+Q29940+E9PIB1+Q8MH48+Q6DU44+Q5SRN5+D0EV57+P01889+P10321+P30505+P13746+P30499+P16188+P30493+Q29865+P30504+P30508+P30685+O19617+Q29963)	1.01 ± 0.014	1.02 ± 0.026	0.961 ± 0.026	0.9786 ± 0.0089	0.9485 ± 0.0059	0.977 ± 0.013	0.949 ± 0.022	0.96 ± 0.015
C9J381 and related entries (UniProt P20839)	0.954 ± 0.031	1.03 ± 0.05	0.999 ± 0.049	0.9672 ± 0.0062	0.933 ± 0.018	0.695 ± 0.051	0.61 ± 0.018	0.581 ± 0.033
B4DT96 and related entries (UniProt O15504)	1.032 ± 0.0079	0.945 ± 0.11	0.985 ± 0.095	1.21 ± 0.19	1.29 ± 0.17	1.43 ± 0.42	1.42 ± 0.26	1.77 ± 0.49
A8MXP9 and related entries (UniProt P43243)	0.988 ± 0.013	1.06 ± 0.03	1.02 ± 0.042	1.03 ± 0.038	1 ± 0.026	1.05 ± 0.039	1 ± 0.029	1.03 ± 0.015
B1AKN5 and related entries (UniProt Q12857)	1.09 ± 0.072	1.06 ± 0.05	1.22 ± 0.072	1.08 ± 0.11	1.12 ± 0.081	1.21 ± 0.13	0.995 ± 0.072	1.13 ± 0.033
B7ZBA0 and related entries (UniProt Q8NI27)	1.1 ± 0.075	1.4 ± 0.12	1.52 ± 0.091	1.62 ± 0.074	1.89 ± 0.076	2.09 ± 0.2	2.4 ± 0.17	2.4 ± 0.21
A6NG45 and related entries (UniProt Q13162)	1.06 ± 0.034	1.05 ± 0.04	1.07 ± 0.057	1.01 ± 0.042	0.975 ± 0.041	0.953 ± 0.07	1.03 ± 0.034	0.992 ± 0.033
A0A0X1KG71 (UniProt Q8WX92)	0.966 ± 0.011	1 ± 0.015	0.9808 ± 0.0083	0.989 ± 0.012	0.9482 ± 0.0081	0.959 ± 0.033	0.959 ± 0.022	0.956 ± 0.023
MYO1G (UniProt B0I1T2)	1.01 ± 0.013	1.92 ± 0.17	3.09 ± 0.27	3.32 ± 0.48	3.48 ± 0.58	3.19 ± 0.4	3.7 ± 0.64	3.52 ± 0.5
A2ABJ5 and related entries (UniProt O75955)	1.01 ± 0.028	0.995 ± 0.04	1.03 ± 0.047	0.948 ± 0.029	0.926 ± 0.012	0.925 ± 0.11	0.931 ± 0.071	0.916 ± 0.052
B1AK44 and related entries (UniProt Q9UI95)	1.01 ± 0.095	0.929 ± 0.068	0.999 ± 0.022	0.937 ± 0.037	0.978 ± 0.024	1.01 ± 0.087	1.05 ± 0.086	0.993 ± 0.059
B1AJY7 and related entries (UniProt O75832)	0.972 ± 0.051	0.931 ± 0.085	1 ± 0.082	0.973 ± 0.031	0.955 ± 0.065	0.977 ± 0.076	0.947 ± 0.056	0.863 ± 0.043
B4DWF2 and related entries (UniProt Q9UKS7)	0.986 ± 0.073	1.02 ± 0.046	1.02 ± 0.062	1.03 ± 0.072	1.04 ± 0.061	1.11 ± 0.089	1.1 ± 0.061	1.2 ± 0.066
UniProt A0FGR8-2|H7BXI1 and related entries	1.04 ± 0.061	1.05 ± 0.032	1 ± 0.026	1.02 ± 0.025	1.02 ± 0.015	0.997 ± 0.052	1.02 ± 0.03	1.02 ± 0.047

Rewritten comma-delimited: part of the list above
Target,NP40-soluble protein abundance (concentration: 0.1mM),NP40-soluble protein abundance (concentration: 0.5mM),NP40-soluble protein abundance (concentration: 1mM),NP40-soluble protein abundance (concentration: 2mM),NP40-soluble protein abundance (concentration: 4mM),NP40-soluble protein abundance (concentration: 6mM),NP40-soluble protein abundance (concentration: 8mM),NP40-soluble protein abundance (concentration: 10mM)
B4DEN4 and related entries (UniProt Q8WV99),0.983 ± 0.048,0.946 ± 0.026,0.955 ± 0.084,0.953 ± 0.046,0.943 ± 0.059,0.958 ± 0.066,0.91 ± 0.037,0.902 ± 0.062
B4DT96 and related entries (UniProt O15504),1.032 ± 0.0079,0.945 ± 0.11,0.985 ± 0.095,1.21 ± 0.19,1.29 ± 0.17,1.43 ± 0.42,1.42 ± 0.26,1.77 ± 0.49
B7ZBA0 and related entries (UniProt Q8NI27),1.1 ± 0.075,1.4 ± 0.12,1.52 ± 0.091,1.62 ± 0.074,1.89 ± 0.076,2.09 ± 0.2,2.4 ± 0.17,2.4 ± 0.21
B4DWF2 and related entries (UniProt Q9UKS7),0.986 ± 0.073,1.02 ± 0.046,1.02 ± 0.062,1.03 ± 0.072,1.04 ± 0.061,1.11 ± 0.089,1.1 ± 0.061,1.2 ± 0.066
